Record: PubChem BioAssay AID1259283 (Sanger Institute, 2017)
Aim: 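Kinome-wide siRNA search for kinases acting with BYL719, cetuximab or trametinib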 (primary screen). Cells: HT115 colorectal cancer cells. Reagent: siRNA pool against human genes. Challenge: anchor drug given one day after siRNA: BYL719 at 1 µM, cetuximab at 5 µg/ml, trametinib at 10 nM, or DMSO vehicle alone. Detection: 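Per-drug synergy scores plus replicate-mean viability relative to non-targeting pool #2 wells, also expressed as a robust z-score based on control wells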. Scale: robust z-score, knock-down alone: higher = more viable cells after knock-down; viability, DMSO vs non-targeting control: higher = more viable cells; synergy score with BYL719 and synergy score with cetuximab and synergy score with trametinib: higher = stronger synergy with drug (synthetic lethal). Call rule: 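Essential gene: robust z-score less than -3 with no drug added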. Meaning of the calls: active = essential (z below -3, no drug); inactive = no change without drug.
This is one part, drawn at random, of 794 reagents tested. Of all reagents, 14 (1.8%) are marked active. 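Calls reflect only viability loss without drug; drug synergy does not enter the call.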 Unmarked entries are inactive. No viability above 1 is reported: the scale is capped. No sequences are given here. Not given: the amount of reagent, the time to read-out.

| gene | robust z-score, knock-down alone | viability, DMSO vs non-targeting control (fraction of control) | synergy score with BYL719 | synergy score with cetuximab | synergy score with trametinib |
| --- | --- | --- | --- | --- | --- |
| PKIB | 0.789 | 1 | 0.0141 | 0.0751 | -0.0222 |
| MAPK13 | -0.908 | 0.843 | -0.143 | -0.0258 | -0.0684 |
| MAPK6 | 0.061 | 0.933 | 0.124 | 0.148 | 0.146 |
| PAK2 | 0.739 | 0.995 | 0.0979 | 0.164 | 0.125 |
| NR4A2 | -1.01 | 0.834 | 0.0968 | 0.0904 | 0.275 |
| CLK4 | 0.789 | 1 | 0.0539 | 0.0941 | 0.0658 |
| CDK12 | 0.789 | 1 | 0.00537 | 0.0331 | 0.0403 |
| TSSK1B | -0.0722 | 0.92 | -0.0843 | 0.0443 | 0.0658 |
| CHD9 | -0.64 | 0.868 | -0.0581 | 0.131 | 0.0356 |
| STK40 | -0.0531 | 0.922 | 0.0587 | -0.0103 | -0.0882 |
| MAPK3 | 0.789 | 1 | -0.0224 | 0.159 | 0.142 |
| CDK14 | 0.435 | 0.967 | -0.0483 | 0.112 | 0.108 |
| ERN1 | -1.97 | 0.745 | -0.196 | -0.0593 | -0.0569 |
| GUCY2C | -0.318 | 0.898 | -0.122 | -0.0689 | 0.0172 |
| PIK3R1 | 0.457 | 0.969 | 0.00693 | -0.00805 | 0.0424 |
| MARK2 | 0.21 | 0.947 | 0.019 | -0.0921 | 0.116 |
| DNMT3A | -3.25 (active) | 0.627 | -0.142 | -0.164 | -0.148 |
| CALM2 | -0.162 | 0.912 | -0.0202 | 0.0727 | 0.0827 |
| MAP3K10 | 0.689 | 0.991 | -0.0314 | -0.0445 | -0.0182 |
| MAGI3 | 0.789 | 1 | -0.0224 | -0.0117 | 0.017 |
| EFNA5 | 0.789 | 1 | -0.0224 | -0.0341 | 0.0599 |
| TCF12 | 0.789 | 1 | 0.098 | 0.202 | 0.0809 |
| MAST4 | 0.789 | 1 | 0.00175 | -0.0435 | -0.119 |
| MAPK1 | 0.69 | 0.991 | 0.132 | 0.246 | 0.244 |
| TP53BP1 | -0.0495 | 0.923 | 0.0815 | 0.0694 | 0.0675 |
| HIPK3 | 0.55 | 0.978 | 0.0148 | 0.134 | 0.1 |
| RIPK3 | 0.789 | 1 | 0.104 | 0.0755 | -0.00772 |
| KRAS | -0.342 | 0.895 | -0.0438 | 0.0531 | 0.241 |
| NUCKS1 | 0.789 | 1 | -0.0224 | -0.0435 | -0.00554 |
| CDK5R1 | -0.65 | 0.867 | -0.0691 | 0.009 | 0.0814 |
| PRKDC | -0.0445 | 0.923 | 0.0845 | 0.0683 | 0.0423 |
| TEC | -0.701 | 0.862 | -0.073 | 0.0171 | 0.0914 |
| PTPRU | -1.62 | 0.777 | 0.104 | -0.0572 | -0.0386 |
| PTK7 | -1.63 | 0.776 | 0.0456 | 0.0649 | -0.00788 |
| CAMK1D | 0.789 | 1 | 0.00933 | 0.0641 | 0.0501 |
| PHKG1 | 0.259 | 0.951 | 0.0571 | 0.0604 | 0.202 |

Continued, starting with the last 5 of the part before.
| gene | robust z-score, knock-down alone | viability, DMSO vs non-targeting control (fraction of control) | synergy score with BYL719 | synergy score with cetuximab | synergy score with trametinib |
| --- | --- | --- | --- | --- | --- |
| TEC | -0.701 | 0.862 | -0.073 | 0.0171 | 0.0914 |
| PTPRU | -1.62 | 0.777 | 0.104 | -0.0572 | -0.0386 |
| PTK7 | -1.63 | 0.776 | 0.0456 | 0.0649 | -0.00788 |
| CAMK1D | 0.789 | 1 | 0.00933 | 0.0641 | 0.0501 |
| PHKG1 | 0.259 | 0.951 | 0.0571 | 0.0604 | 0.202 |
| MOK | -1.57 | 0.782 | -0.0429 | 0.0235 | 0.144 |
| TCF7L2 | 0.338 | 0.958 | -0.0632 | -0.0834 | -0.191 |
| PTGS1 | -0.64 | 0.868 | 0.0493 | 0.127 | 0.0203 |
| VRK1 | -0.522 | 0.879 | 0.0685 | 0.0182 | 0.0346 |
| PRKAB1 | -2.03 | 0.739 | -0.19 | 0.0257 | 0.144 |
| CDC73 | -0.698 | 0.863 | -0.017 | 0.0368 | -0.0879 |
| PRKAA2 | 0.544 | 0.977 | 0.0125 | 0.0911 | 0.0663 |
| RIOK1 | -1.32 | 0.805 | -0.0364 | -0.0204 | -0.0342 |
| GTF2H1 | -0.937 | 0.84 | -0.058 | -0.00383 | -0.0444 |
| MLKL | -0.861 | 0.848 | -0.136 | -0.0301 | -0.119 |
| CUL1 | 0.789 | 1 | -0.0224 | -0.0331 | -0.0936 |
| THNSL1 | 0.645 | 0.987 | -0.0354 | 0.0135 | -0.0356 |
| CDADC1 | 0.597 | 0.982 | -0.0271 | 0.0888 | 0.0533 |
| IPMK | 0.789 | 1 | -0.0151 | 0.0361 | 0.0225 |
| RPS6KA6 | 0.228 | 0.948 | 0.0495 | 0.0492 | 0.0643 |
| GRK6 | 0.431 | 0.967 | 0.00184 | 0.015 | 0.0549 |
| ALK | -2.49 | 0.696 | -0.228 | -0.0965 | -0.00828 |
| CDKN2D | 0.209 | 0.946 | 0.22 | 0.242 | 0.253 |
| PI4K2A | 0.789 | 1 | 0.0195 | 0.143 | 0.0766 |
| RYK | 0.462 | 0.97 | 0.273 | 0.0122 | -0.0675 |
| CDK20 | -0.0262 | 0.925 | 0.163 | 0.063 | 0.118 |
| CDK13 | 0.789 | 1 | -0.0224 | 0.0609 | -0.00223 |
| TYK2 | 0.0147 | 0.928 | -0.0257 | 0.00212 | 0.0827 |
| MAP3K7 | 0.789 | 1 | 0.0457 | 0.22 | 0.275 |
| NUAK1 | 0.456 | 0.969 | 0.0617 | 0.213 | 0.132 |
| CDK15 | 0.789 | 1 | 0.119 | 0.0342 | 0.0513 |
| EPHB4 | 0.35 | 0.959 | -0.015 | 0.0782 | 0.0581 |
